US10272061B2, “Compositions and methods for unoccluded transdermal oxybutynin therapy” (Allergan Sales, LLC, priority 2000, dated 2019)
At least one structure is not confirmed: it was looked up by name or label, or the drawing left a doubt. Some results were stated once for a whole list of compounds, not compound by compound.

Tests used:
[1] = Cross-over clinical pharmacokinetic study: 5 mg oral immediate-release oxybutynin vs transdermal oxybutynin system; details: plasma
[2] = Single-dose pharmacokinetics after oxybutynin gel on 400 cm^2 and 800 cm^2 application areas on the thighs; type: in vivo, human; details: 3 g of 4.4% oxybutynin gel, 800 cm^2 application area
Excerpt: A clinical study in 21 healthy volunteers, 21 to 45 years of age, evaluated the effect of application surface area on the single-dose pharmacokinetic of oxybutynin following topical oxybutynin gel administration. The study employed a two-period, open-labeled, randomized crossover design to evaluate the effect of application surface area on the single dose pharmacokinetics and safety of a topical gel formulation of oxybutynin hydrochloride.
Volunteers received topical administrations of 3 g of 4.4% oxybutynin gel at the beginning of two 72 hour treatment periods, with a minimum six day washout separating the treatment periods. Each volunteer received a dose applied to a 400 cm^2 area in one treatment period, and a dose to an 800 cm^2 area the other treatment period. The sequential order of the treatment periods was randomized. Blood samples were periodically collected throughout the study periods and plasma was harvested according to standard procedures. Plasma oxybutynin and N-desethyloxybutynin metabolite concentrations were evaluated using high performance liquid chromatography-tandem mass spectrometry method performed according to established guidelines.

[3] = Single and multiple dose pharmacokinetics after oxybutynin gel administration; type: in vivo, human; details: first period: single 3 g of 4.4% oxybutynin gel
Description: A clinical study in 20 healthy volunteers, 20 to 44 years of age, evaluated the single and multiple dose pharmacokinetics of oxybutynin and N-desethyloxybutynin following topical oxybutynin gel administration. The study employed a two-period multiple dose study.
In the first treatment period, volunteers received a topical administration of 3 g of 4.4% oxybutynin gel followed by a 72 hour evaluation period. The second treatment period, oxybutynin gel was administered topically to the volunteers on 7 consecutive mornings. The two treatment periods were separated by a 7-day washout period. Blood samples were periodically collected throughout the study periods and plasma was harvested according to standard procedures. Plasma oxybutynin and N-desethyloxybutynin metabolite concentrations were estimated using high performance liquid chromatography-tandem mass spectrometry method performed according to established guidelines.
After a 7-day washout following the initial gel application, subjects applied daily 3 g doses of oxybutynin gel to rotating body sites (abdomen, upper arms, thighs) for 7 consecutive days. Plasma samples were drawn each morning before the next gel application.

SMILES: CCNCC#CCOC(=O)[C@](O)(c1ccccc1)C1CCCCC1 [(R)—N-desethyloxybutynin]
- mean AUC ratio of (R)-N-desethyloxybutynin to (R)-oxybutynin ([1]; 5 mg oral oxybutynin tablet): about 17:1
- mean AUC ratio of (R)-N-desethyloxybutynin to (S)-N-desethyloxybutynin ([1]; 5 mg oral oxybutynin tablet): about 1.5:1
- mean AUC ratio of (R)-N-desethyloxybutynin to (R)-oxybutynin ([1]; transdermal oxybutynin system): about 1:1
- mean AUC ratio of (R)-N-desethyloxybutynin to (S)-N-desethyloxybutynin ([1]; transdermal oxybutynin system): about 0.9:1

SMILES: CCNCC#CCOC(=O)C(O)(c1ccccc1)C1CCCCC1 (stereo not shown) [N-desethyloxybutynin]
- time of Cmax [2]: 48 h
- time by which plasma levels were measurable ([2]; thighs): ≤ 2 h
- time to Cmax following gel application [3]: approximately 26 hours
